Measured values published in PubChem BioAssay AID540256 (National Center for Advancing Translational Sciences (NCATS), 2011).
Hit rate of the full screen: of about 300,000 compounds, about 3,700 (1.2%) were called active. This list was built around the results that the source calls inconclusive (neither active nor inactive); the mix of calls is not that of the screen. The call rests on the fitted dose curve; tested in HEK293 cells. Potencies beside an inconclusive call are fits to weak or partial responses and may not hold up.

Test: qHTS for Inhibitors of binding or entry into cells for Lassa Virus; further: nearly all actives have a fitted effect of over 50% in size
Conditions: Lassa virus pseudotype entry inhibition, cell reporter; activity change, negative = inhibition: at 37.9 µM (top of the series) unless noted
On the % scale 0 is the no-effect control and ±100 the full control effect; potency means the concentration at half of the fitted maximal effect.

Structure (SMILES)	Potency	activity change, negative = inhibition
CC(=O)Nc1ccc(S(=O)(=O)N(C)c2nc3ccccc3nc2Cl)cc1	inconclusive: 17.8 µM [inhibitor, single point]	
O=C1/C(=C/c2cccs2)Sc2ccccc21	inconclusive: 10 µM [inhibitor, partial curve, poor fit]	
Cc1ccc2c(c1)N(CC(=O)NC1CCC(C)CC1)C(=O)CO2 (stereo not given)		inactive: 8.27%
COc1cccc(-c2cc(C(=O)Nc3cc(OC)c(OC)c(OC)c3)no2)c1	inconclusive: 14.6 µM [inhibitor, single point]	
O=C(CCn1c(=O)[nH]c2ccsc2c1=O)N1CC(=O)N(CCc2ccccc2)C(=O)C1	inconclusive: 29.1 µM [activator, single point]	
O=C(NCCC1CCCCN1S(=O)(=O)c1ccccc1)C(=O)Nc1ccccc1 (stereo not given)	inconclusive: 7.94 µM [inhibitor, partial curve, poor fit]	
CC(=O)C1C(=O)CC(C)(O)C(C(C)=O)C1c1ccc(N(C)C)cc1 (stereo not given)		inactive: 7.32%
CCN(CC)S(=O)(=O)c1ccc(C(=O)N2CCc3ccccc32)cc1		inactive: -2% [at 46.1 µM]
CN(C)C(CNC(=O)c1cc2ccccc2o1)c1ccccc1 (stereo not given)		inactive: 1.37%
Cc1cc(NC(=O)CS(=O)(=O)Cc2ccccc2)no1		inactive: 5.58% [at 46.1 µM]
C/C(=N\NC(=O)c1cccc(S(=O)(=O)N2CCCC2)c1)c1ccc(F)cc1	inconclusive: 4.47 µM [inhibitor, partial curve, poor fit]	
CCOc1ccc(OCC)c(NC(=O)Cn2c(C)nc3ccccc3c2=O)c1		inactive: 10%
COc1cc(CC(=O)NCCc2ccc(OCc3ccccc3)cc2)c([N+](=O)[O-])cc1OC		inactive: 0.95%
COc1ccccc1CC(=O)Nc1ccc([N+](=O)[O-])cc1O	active: 6.31 µM	
O=C(CN(c1cccc([N+](=O)[O-])c1)S(=O)(=O)c1ccccc1)NCc1ccccc1		inactive: -2%
O=C1CC(c2ccc(F)c(Br)c2)C2=C(CCCC2=O)N1 (stereo not given)		inactive: 21.9%
CCOc1ccc2nc(SCC(=O)Nc3cc(C)on3)c(C)cc2c1		inactive: -8.3%
CCc1ccc(C(=O)COC(=O)c2n[nH]c3ccccc23)cc1	inconclusive: 3.55 µM [inhibitor, partial curve, poor fit]	
COc1ccc(C(=O)Oc2coc(CSc3nnc(NC(=O)c4cccs4)s3)cc2=O)cc1	inconclusive: 1.12 µM [activator, full curve, poor fit]	
CCNC(=O)COc1ccc(CC)cc1		inactive: 9.19%
CCNC(=O)NC(=O)C(C)SCc1ccccc1C (stereo not given)		inactive: -1.15%
Cc1ccsc1/C=N/NC(=S)NCc1ccccc1	inconclusive: 1.26 µM [inhibitor, full curve, poor fit]	
O=C(Nc1ccccc1)Nc1nc2ccccc2s1	inconclusive: 5.01 µM [inhibitor, full curve]	
O=C(CSCc1ccccc1Cl)Nc1ccc2c(c1)OCCO2	inconclusive: 5.8 µM [activator, partial curve]	
Nc1cc2cccnc2cc1Cl	inconclusive: 35.5 µM [activator, single point]	

Structure (SMILES)	Potency	activity change, negative = inhibition
CCOc1ccccc1-n1nnc(-c2nc(-c3ccccc3C)no2)c1C		inactive: 18.4% [at 46.1 µM]
O=C(Nc1ccccc1F)Nc1cc(Cl)ccc1-n1cncn1		inactive: -13%
O=C(NCc1ccccc1)c1cc(S(=O)(=O)N2CCCCC2)ccc1N1CCOCC1	inconclusive: 35.5 µM [inhibitor, single point]	
O=C1CCCCC1C(Nc1ccc(Br)cc1)c1ccccc1 (stereo not given)	inconclusive: 35.5 µM [inhibitor, single point]	
Cc1nn(C)c2c1c(C(F)(F)F)cc(=O)n2CC(=O)N1CCCCC1		inactive: -4.31% [at 46.1 µM]
C=C1C(=O)O[C@@H]2[C@H]3O[C@]3(C)CCC=C(C)CC[C@@H]12	active: 9.2 µM	
O=C(Nc1ccc(F)c(Cl)c1)C1CCN(S(=O)(=O)c2ccc3[nH]c(=O)ccc3c2)CC1	inconclusive: 4.47 µM [inhibitor, partial curve]	
C=CCNC(=O)c1ccc(-c2ccc([N+](=O)[O-])cc2)o1	inconclusive: 6.31 µM [activator, single point]	
Cc1cc(C(=O)N2CCN(Cc3ccc4c(c3)OCO4)CC2)cs1	inconclusive: 6.51 µM [inhibitor, single point]	
CCOC(=O)C(NC(=O)c1ccccc1)(OCc1ccc(F)cc1)C(F)(F)F (stereo not given)	inconclusive: 2 µM [inhibitor, partial curve, poor fit]	
O=C(Cc1ccccc1)Nc1cc(C(=O)c2ccccc2)ccc1N1CCOCC1	inconclusive: 2.59 µM [inhibitor, full curve, poor fit]	
Cc1cc(C)cc(OCC(=O)NC(Cc2c[nH]c3ccccc23)C(=O)O)c1 (stereo not given)		inactive: 2.68% [at 46.1 µM]
Cc1cccc(OCC(=O)Nc2c(C(=O)N3CCN(c4ccccc4F)CC3)oc3ccccc23)c1	inconclusive: 20 µM [inhibitor, single point]	
COc1ccc(Cc2nc3ccc(C(=O)N(C)C(C)c4nccs4)cc3o2)cc1 (stereo not given)	inconclusive: 17.8 µM [inhibitor, partial curve, poor fit]	
Cc1ccc(S(=O)(=O)Nc2ccc3c(c2)C(=O)NC3=O)cc1[N+](=O)[O-]		inactive: 17.9%
COC(=O)c1ccc(NC(=O)CC2Nc3cc(C)c(C)cc3NC2=O)cc1 (stereo not given)	inconclusive: 35.5 µM [inhibitor, single point]	
COc1ccccc1N1CCN(CC(=O)Nc2ccccc2C(=O)NC(C)c2ccccc2)CC1 (stereo not given)	inconclusive: 8.91 µM [inhibitor, partial curve]	
O=C1C(Cl)=C(Nc2ccc3cn[nH]c3c2)C(=O)c2ccccc21	active: 3.55 µM	
O=C(CSc1nnc(-c2ccccc2Br)o1)Nc1nncs1		inactive: 6.59%
O=C(/C=C\Nc1ccc2c(c1)OCO2)c1cccs1	inconclusive: 5.62 µM [inhibitor, full curve, poor fit]	
Nc1ccc(Oc2ccc(Cl)cc2)cc1		inactive: -16.1%
CCCC1CC(C)(C(=O)Cn2[nH]c(=O)ccc2=O)OC1=O (stereo not given)	inconclusive: 35.5 µM [activator, single point]	
Cc1noc(C)c1COc1ccccc1C(=O)NCc1ccccc1Cl	inconclusive: 3.16 µM [inhibitor, partial curve, poor fit]	
COCCCN(C(C)=O)c1nc(-c2ccc(OC)cc2)cs1	active: 10.3 µM	
Cc1cc([N+](=O)[O-])cc(C)c1OCC(=O)N/N=C/c1ccc(OC(=O)c2ccccc2Br)cc1	inconclusive: 20.6 µM [inhibitor, single point]	

Taken from above:
Potency, `O=C(Nc1ccc(F)c(Cl)c1)C1CCN(S(=O)(=O)c2ccc3[nH]c(=O)ccc3c2)CC1` reads inconclusive: 4.47 µM [inhibitor, partial curve]
Potency, `O=C(Cc1ccccc1)Nc1cc(C(=O)c2ccccc2)ccc1N1CCOCC1` reads inconclusive: 2.59 µM [inhibitor, full curve, poor fit]

Going on with the list.

Structure (SMILES)	Potency	activity change, negative = inhibition
CC(C)Nc1nc(NC(C)C)nc(N(C)C(N)=O)n1		inactive: 2.29%
COc1cccc(N2CCc3c(C)nc4ccc(Cl)cc4c32)c1	inconclusive: 0.891 µM [activator, partial curve, poor fit]	
CCC1CN(C(=O)Nc2cc(C)ccc2OC)c2cc(Cl)ccc2O1 (stereo not given)		inactive: 0.425% [at 46.1 µM]
NNC(=O)C1CC1c1ccc(Cl)cc1 (stereo not given)	active: 2.59 µM	
Cc1cccc(C)c1CC(=O)N1CCOCC1	inconclusive: 22.4 µM [inhibitor, single point]	
CCOc1ccc(-c2c(=O)n(OCc3nc4ccccc4[nH]3)c3ccccc3[n+]2[O-])cc1	inconclusive: 12.6 µM [activator, partial curve]	
COc1ccc(C(=O)N2CCN(c3nc(C4CC4)nc4sc(C)c(C)c34)CC2)cc1	inconclusive: 35.5 µM [inhibitor, single point]	
CCC(CC)C(=O)c1c[nH]c(C(=O)NCc2ccccn2)c1	inconclusive: 7.08 µM [inhibitor, partial curve, poor fit]	
CCCCC(=O)OCc1cc(=O)n2nc(C3CCCCC3)sc2n1		inactive: 27.2% [at 46.1 µM]
Cc1cccc(Nc2ccccc2C(=O)O)c1C	inconclusive: 0.116 µM [inhibitor, full curve, poor fit]	
CN(CC(=O)N1CCN(c2ccc(F)cc2)CC1)S(=O)(=O)c1ccc(F)cc1		inactive: -2.5%
COc1ccc(-n2cc(CN3CCC(OC)CC3)c(-c3cccc(F)c3)n2)cc1		inactive: -16.4% [at 46.1 µM]
O=C(Nc1ccccc1Cl)c1ccccc1Cl		inactive: -1.83%
COc1cccc(CN(C)CC(=O)NC(=O)NCc2ccccc2)c1	inconclusive: 23.1 µM [inhibitor, single point]	
COC(=O)c1ccc(/C=N\NC(=O)c2ccc(C)cc2Cl)cc1	inconclusive: 10.3 µM [inhibitor, partial curve]	
CC(C)c1ccc(N2C(=O)NC(=O)/C(=C\c3cnc(-c4ccccc4)nc3)C2=O)cc1		inactive: 22.6%
CCOC(=O)C1=C(Nc2ccccc2)CC(C)(O)C(C(=O)OCC)C1c1ccc(Br)cc1 (stereo not given)		inactive: -0.889%
O=C(CSc1ncn[nH]1)Nc1ccc2c(c1)OCCO2		inactive: 22.3%
NS(=O)(=O)c1ccc(CNC(=O)c2ccc(NS(=O)(=O)c3cccs3)cc2)cc1		inactive: -15.7%
CCN1CCc2nc3sc(C(=O)N4CCc5ccccc5C4)c(N)c3cc2C1		inactive: 0.929% [at 46.1 µM]
CN(C(=O)COC(=O)c1c2c(nc3ccccc13)/C(=C/c1cccc([N+](=O)[O-])c1)CCC2)C1CCS(=O)(=O)C1 (stereo not given)	inconclusive: 8.91 µM [inhibitor, partial curve]	
CCc1cccc(NS(=O)(=O)c2ccc3c(c2)n(C)c(=O)c(=O)n3C)c1		inactive: -5.46% [at 46.1 µM]
COc1cccc(CNC(=O)c2cc(S(=O)(=O)N3CCCCCC3)cn2C)c1		inactive: 25% [at 46.1 µM]
COc1ccccc1NC(=O)C/C(C)=N/NC(=O)COc1c(Br)cc(Br)cc1OC	inconclusive: 1.26 µM [inhibitor, single point]	
CCOC(=O)CSc1nc2cc3c(cc2c(=O)n1CCCC(=O)NCCc1ccc(OC)c(OC)c1)OCO3	inconclusive: 7.94 µM [activator, partial curve]	
